Inconclusive means that the source gave no clear call. Such entries were picked first, then a sample of the others. Potencies beside an inconclusive call are fits to weak or partial responses and may not hold up. Calls of active or inactive are those of the source. Rule for the calls: active = hit-call score of the fitted dose curve at least 0.9, where 1 is the maximum; inconclusive = response in the unintended direction; inactive = score below 0.9.
Assays:
[1] = molecular target: Retinoic acid receptor alpha (Homo sapiens) (UniProt P10276); test: ATG_RARa_TRANS: Attagene TRANS-FACTORIAL HepG2 Assay for human Retinoic Acid Receptor alpha (RARa) (AID 2283005);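 for AC50: potency for increased reporter signal meaning RARa activation over DMSO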
In short: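 HepG2 transiently transfected with multiplex GAL4-UAS reporter units including a human RARa–GAL4 chimera; 24 h compound exposure. Reporter mRNA quantified by RT-PCR, 6-FAM labeling and capillary electrophoresis; gain of signal versus DMSO.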

By UniProt entry, the sequences of proteins in these tests, tags left out. Where a name states a change or a piece, a line headed by the entry shows the natural chain unless it says otherwise.
UniProt P10276, whole entry, looked up: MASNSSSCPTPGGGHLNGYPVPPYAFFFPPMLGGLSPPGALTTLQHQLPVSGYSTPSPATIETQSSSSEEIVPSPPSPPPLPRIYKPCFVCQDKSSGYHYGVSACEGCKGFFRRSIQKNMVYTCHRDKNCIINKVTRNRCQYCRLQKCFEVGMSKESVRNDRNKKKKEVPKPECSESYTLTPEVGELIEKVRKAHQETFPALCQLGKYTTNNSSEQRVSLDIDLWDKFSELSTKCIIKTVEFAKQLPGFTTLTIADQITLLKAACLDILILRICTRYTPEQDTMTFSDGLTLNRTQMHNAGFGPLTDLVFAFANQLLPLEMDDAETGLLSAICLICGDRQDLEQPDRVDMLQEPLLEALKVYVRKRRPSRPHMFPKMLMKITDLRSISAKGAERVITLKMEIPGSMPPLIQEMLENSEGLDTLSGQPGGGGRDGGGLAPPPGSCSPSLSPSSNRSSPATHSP
UniProt O75469: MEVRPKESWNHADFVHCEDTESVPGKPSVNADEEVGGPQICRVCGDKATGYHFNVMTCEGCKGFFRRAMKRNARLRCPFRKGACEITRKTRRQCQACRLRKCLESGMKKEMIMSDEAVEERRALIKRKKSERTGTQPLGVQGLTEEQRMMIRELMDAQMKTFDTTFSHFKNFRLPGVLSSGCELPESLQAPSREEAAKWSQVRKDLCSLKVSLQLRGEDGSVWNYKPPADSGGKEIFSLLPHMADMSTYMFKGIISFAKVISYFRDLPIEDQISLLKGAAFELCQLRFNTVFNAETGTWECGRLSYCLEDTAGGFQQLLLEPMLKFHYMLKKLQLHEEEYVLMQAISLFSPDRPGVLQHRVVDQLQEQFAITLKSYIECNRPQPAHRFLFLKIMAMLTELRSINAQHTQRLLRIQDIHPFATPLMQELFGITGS
UniProt P13631, whole entry, looked up: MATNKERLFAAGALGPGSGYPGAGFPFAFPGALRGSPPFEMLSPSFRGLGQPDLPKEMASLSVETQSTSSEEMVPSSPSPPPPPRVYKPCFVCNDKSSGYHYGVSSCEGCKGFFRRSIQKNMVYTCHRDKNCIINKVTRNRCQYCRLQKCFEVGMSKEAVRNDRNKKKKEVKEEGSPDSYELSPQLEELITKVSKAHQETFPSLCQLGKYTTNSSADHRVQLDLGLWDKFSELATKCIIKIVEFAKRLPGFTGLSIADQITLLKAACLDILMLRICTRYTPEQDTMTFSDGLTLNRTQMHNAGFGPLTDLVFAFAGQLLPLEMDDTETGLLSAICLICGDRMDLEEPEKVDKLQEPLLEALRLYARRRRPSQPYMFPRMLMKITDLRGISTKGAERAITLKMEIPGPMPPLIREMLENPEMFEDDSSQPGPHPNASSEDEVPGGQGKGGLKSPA
UniProt Q92753: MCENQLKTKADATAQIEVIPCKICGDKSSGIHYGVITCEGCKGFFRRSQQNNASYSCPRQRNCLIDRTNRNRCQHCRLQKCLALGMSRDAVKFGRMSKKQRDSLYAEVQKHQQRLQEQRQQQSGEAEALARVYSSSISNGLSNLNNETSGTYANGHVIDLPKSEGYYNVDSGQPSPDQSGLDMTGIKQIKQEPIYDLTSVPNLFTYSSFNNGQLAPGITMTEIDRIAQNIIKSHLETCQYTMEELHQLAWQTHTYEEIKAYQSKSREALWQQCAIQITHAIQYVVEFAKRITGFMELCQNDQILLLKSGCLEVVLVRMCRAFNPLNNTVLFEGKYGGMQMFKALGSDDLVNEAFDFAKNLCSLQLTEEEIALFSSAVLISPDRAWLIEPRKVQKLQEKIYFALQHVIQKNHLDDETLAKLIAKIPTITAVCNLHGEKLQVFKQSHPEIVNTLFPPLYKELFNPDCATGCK
UniProt P51449: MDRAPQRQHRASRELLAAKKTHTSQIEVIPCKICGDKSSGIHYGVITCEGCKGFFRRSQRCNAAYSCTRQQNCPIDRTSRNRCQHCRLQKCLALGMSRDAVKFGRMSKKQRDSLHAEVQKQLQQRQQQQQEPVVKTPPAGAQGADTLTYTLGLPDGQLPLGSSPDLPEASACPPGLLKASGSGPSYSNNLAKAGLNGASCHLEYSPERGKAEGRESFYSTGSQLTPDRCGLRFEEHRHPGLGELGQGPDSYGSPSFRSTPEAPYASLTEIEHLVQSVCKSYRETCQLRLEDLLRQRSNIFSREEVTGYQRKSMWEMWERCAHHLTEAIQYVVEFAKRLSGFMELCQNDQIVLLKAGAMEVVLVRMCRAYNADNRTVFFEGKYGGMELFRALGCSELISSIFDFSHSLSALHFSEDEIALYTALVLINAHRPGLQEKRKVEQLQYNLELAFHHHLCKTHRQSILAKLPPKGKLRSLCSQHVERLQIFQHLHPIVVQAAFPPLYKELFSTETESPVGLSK
UniProt P19793: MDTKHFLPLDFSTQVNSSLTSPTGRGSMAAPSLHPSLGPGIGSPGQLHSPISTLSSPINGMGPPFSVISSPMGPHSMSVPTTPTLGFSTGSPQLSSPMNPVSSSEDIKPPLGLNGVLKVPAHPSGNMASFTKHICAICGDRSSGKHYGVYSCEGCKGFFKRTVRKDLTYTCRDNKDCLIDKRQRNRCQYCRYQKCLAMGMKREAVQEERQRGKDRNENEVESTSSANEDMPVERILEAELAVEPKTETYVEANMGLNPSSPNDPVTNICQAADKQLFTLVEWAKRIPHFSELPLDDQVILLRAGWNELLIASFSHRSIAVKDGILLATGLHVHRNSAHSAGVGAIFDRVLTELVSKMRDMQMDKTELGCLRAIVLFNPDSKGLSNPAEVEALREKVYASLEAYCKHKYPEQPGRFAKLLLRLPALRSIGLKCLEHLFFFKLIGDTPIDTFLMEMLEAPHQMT
UniProt P28702: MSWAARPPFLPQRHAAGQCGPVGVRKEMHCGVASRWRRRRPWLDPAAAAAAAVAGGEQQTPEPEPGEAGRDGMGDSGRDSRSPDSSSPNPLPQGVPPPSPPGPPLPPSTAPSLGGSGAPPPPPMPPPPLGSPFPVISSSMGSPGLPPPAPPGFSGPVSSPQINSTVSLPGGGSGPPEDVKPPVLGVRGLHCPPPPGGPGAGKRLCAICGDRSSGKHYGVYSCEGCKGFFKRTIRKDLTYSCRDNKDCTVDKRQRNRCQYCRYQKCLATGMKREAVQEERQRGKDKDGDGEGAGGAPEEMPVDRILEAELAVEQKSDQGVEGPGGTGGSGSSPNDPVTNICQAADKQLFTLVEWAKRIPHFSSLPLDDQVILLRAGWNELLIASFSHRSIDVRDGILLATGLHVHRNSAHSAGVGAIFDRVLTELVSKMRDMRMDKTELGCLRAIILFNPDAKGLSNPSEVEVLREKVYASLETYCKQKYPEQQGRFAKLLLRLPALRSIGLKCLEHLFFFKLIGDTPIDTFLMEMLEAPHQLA
UniProt P10827: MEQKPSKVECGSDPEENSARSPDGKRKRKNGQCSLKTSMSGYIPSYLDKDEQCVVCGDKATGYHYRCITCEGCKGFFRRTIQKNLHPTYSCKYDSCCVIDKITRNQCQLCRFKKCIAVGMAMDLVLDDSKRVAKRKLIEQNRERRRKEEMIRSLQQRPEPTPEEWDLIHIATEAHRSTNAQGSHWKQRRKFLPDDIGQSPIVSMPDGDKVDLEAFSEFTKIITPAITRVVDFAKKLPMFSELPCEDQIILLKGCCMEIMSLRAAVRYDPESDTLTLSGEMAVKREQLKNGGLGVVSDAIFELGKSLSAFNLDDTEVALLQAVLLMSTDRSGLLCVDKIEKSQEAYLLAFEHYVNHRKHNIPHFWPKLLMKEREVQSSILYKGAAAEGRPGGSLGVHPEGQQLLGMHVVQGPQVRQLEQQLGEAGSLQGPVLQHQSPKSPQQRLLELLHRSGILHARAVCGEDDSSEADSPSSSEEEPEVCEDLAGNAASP
UniProt P11473: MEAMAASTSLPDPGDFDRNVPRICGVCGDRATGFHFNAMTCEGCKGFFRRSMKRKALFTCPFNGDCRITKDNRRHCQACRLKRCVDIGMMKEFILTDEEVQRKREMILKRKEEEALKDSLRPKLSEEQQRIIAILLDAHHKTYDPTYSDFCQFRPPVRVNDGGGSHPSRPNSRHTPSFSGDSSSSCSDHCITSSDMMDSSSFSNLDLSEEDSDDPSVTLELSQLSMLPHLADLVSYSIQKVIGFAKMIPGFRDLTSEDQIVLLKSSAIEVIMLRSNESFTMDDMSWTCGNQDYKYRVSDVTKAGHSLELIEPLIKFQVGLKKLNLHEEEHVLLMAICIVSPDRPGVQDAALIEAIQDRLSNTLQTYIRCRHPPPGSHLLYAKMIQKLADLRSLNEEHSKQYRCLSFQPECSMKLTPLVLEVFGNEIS

[2] = molecular target: Nuclear receptor subfamily 1 group I member 2 (Homo sapiens) (UniProt O75469); test: ATG_PXR_TRANS: Attagene TRANS-FACTORIAL HepG2 Assay for human Pregnane X Receptor (PXR) (AID 2283008)
In short: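 Transactivation by exogenous PXR–GAL4 fusion measured as reporter transcript induction after 24 h compound treatment of transfected human HepG2 cells. Read-out via RT-PCR and capillary electrophoresis of labelled fragments, fitted upward relative to DMSO.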

[3] = molecular target: human Retinoic Acid Receptor gamma (RARg), RARG (gene 5916) (UniProt P13631); test: ATG_RARg_TRANS: Attagene TRANS-FACTORIAL HepG2 Assay for human Retinoic Acid Receptor gamma (RARg) (AID 2283009);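 for AC50: AC50 is for reporter induction above DMSO meaning RARg activation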
In short: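 Gain-of-signal relative to DMSO is reported from fluorescent capillary electrophoresis of RT-PCR reporter products. These came from HepG2 cells expressing transfected RARg-GAL4 chimeras with UAS reporters, harvested 24 h after dosing.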

[4] = molecular target: human RAR-related Orphan Receptor beta (RORb), RORB (gene 6096) (UniProt Q92753); test: ATG_RORb_TRANS: Attagene TRANS-FACTORIAL HepG2 Assay for human RAR-related Orphan Receptor beta (RORb) (AID 2283010);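 for AC50: potency for increased reporter mRNA meaning activation of RORb-Gal4 chimera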
In short: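 Multiplexed transcription-factor reporter assay: HepG2 cells transiently carrying NR-Gal4/GAL4-UAS constructs, 24 h treatment, mRNA quantified by RT-PCR plus capillary electrophoresis fluorescence; activity scored as induction over DMSO.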

[5] = molecular target: human RAR-related Orphan Receptor gamma (RORg), RORC (gene 6097) (UniProt P51449); test: ATG_RORg_TRANS: Attagene TRANS-FACTORIAL HepG2 Assay for human RAR-related Orphan Receptor gamma (RORg) (AID 2283011);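 for AC50: potency for induction of reporter transcripts above DMSO so activators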
In short: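 Readout: reporter transcript induction (RT-PCR, fluorescent primer extension, capillary electrophoresis) after 24 h compound exposure of transiently transfected HepG2 cells carrying a RORg-Gal4 chimera and GAL4-UAS reporters; DMSO served as baseline, with increasing signal fitted.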

[6] = molecular target: Retinoic acid receptor RXR-alpha (Homo sapiens) (UniProt P19793); test: ATG_RXRa_TRANS: Attagene TRANS-FACTORIAL HepG2 Assay for human Retinoid X Receptor alpha (RXRa) (AID 2283012)
In short: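 Chimeric NR-GAL4 trans-activation in HepG2, 24 h treatment; reporter transcripts quantified by fluorescence on capillary electrophoresis, analysed for upward change from DMSO.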

[7] = molecular target: human Retinoid X Receptor beta (RXRb), RXRB (gene 6257) (UniProt P28702); test: ATG_RXRb_TRANS: Attagene TRANS-FACTORIAL HepG2 Assay for human Retinoid X Receptor beta (RXRb) (AID 2283013)
In short: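 After a 24 h incubation with test chemical, transfected HepG2 cells carrying NR-Gal4 fusions and GAL4-UAS reporter transcription units yield RNA whose reporter cDNA is FAM-labelled, HpaI-cut and sized by capillary electrophoresis; increases over DMSO are scored.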

[8] = molecular target: human Thyroid Receptor alpha (THRa1), THRA (gene 7067) (UniProt P10827); test: ATG_THRa1_TRANS: Attagene TRANS-FACTORIAL HepG2 Assay for human Thyroid Receptor alpha (THRa1) (AID 2283014)
In short: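 HepG2 cells transiently transfected with multiplexed GAL4-UAS reporter units for exogenous chimeric THRa1-Gal4; reporter mRNA measured 24 h after dosing by RT-PCR, 6-FAM labelling, HpaI digestion and capillary electrophoresis. Gain-of-signal fitted versus DMSO baseline.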

[9] = molecular target: human Vitamin D Receptor (VDR), VDR (gene 7421) (UniProt P11473); test: ATG_VDR_TRANS: Attagene TRANS-FACTORIAL HepG2 Assay for human Vitamin D Receptor (VDR) (AID 2283022)
In short: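 HepG2 cells were transiently transfected with multiple GAL4-UAS reporter units, so signal reflects exogenous chimeric receptor-Gal4 activity. After 24 h compound exposure, reporter mRNA was measured by RT-PCR, fluorescent labelling and capillary electrophoresis, fitted for gain of signal versus DMSO.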

Measured: AC50

NC(=O)Nc1ccccc1
inconclusive: [1] 147 µM | [2] 95.5 µM | [3] 1.11 µM | [4] 95.5 µM | [5] 95.5 µM | [6] 95.5 µM | [7] 95.5 µM | [8] 3.57 µM
inactive: [9]

Cc1cc(C)c(C)cc1C
inconclusive: [1] 1.79 µM | [2] 100 µM | [3] 100 µM | [4] 100 µM | [5] 100 µM | [6] 1.85 µM | [8] 100 µM

CCC(C)c1nccnc1OC (stereo unspecified)
inactive: [1] | [5] | [6]
inconclusive: [2] 100 µM | [3] 170 µM | [4] 100 µM | [8] 100 µM

N=C1C=CC(=C(c2ccc(N)cc2)c2ccc(N)cc2)C=C1
inconclusive: [1] 100 µM | [7] 100 µM
inactive: [2] | [3] | [4] | [5] | [6]

CCCCCCCC[N+](C)(CCCCCCCC)CCCCCCCC
inconclusive: [2] 24.9 µM | [4] 100 µM | [5] 176 µM | [6] 100 µM | [7] 160 µM
inactive: [1] | [3] | [8]

CCOC=C(C(=O)OCC)C(=O)OCC
inconclusive: [1] 162 µM | [4] 100 µM | [5] 100 µM | [8] 100 µM
inactive: [2] | [3] | [7]

C=CC(=O)OCCN(CC)CC
inconclusive: [2] 165 µM | [4] 24.6 µM | [7] 26.1 µM
inactive: [1] | [3] | [5]

CCCCc1ccc2ccccc2c1S(=O)(=O)O
inconclusive: [1] 28.6 µM | [6] 23 µM | [8] 94.5 µM
active: [2] 2.67 µM
inactive: [3] | [4] | [5] | [9]

CCOc1ccc2[nH]cc(C(=O)NCc3ccccc3)c(=O)c2n1
inconclusive: [1] 44.5 µM | [3] 182 µM | [4] 1.34 µM | [5] 179 µM
inactive: [7] | [8]
active: [2] 13 µM

2 records picked at random from the list so far:
CCOc1ccc2[nH]cc(C(=O)NCc3ccccc3)c(=O)c2n1
inconclusive: [1] 44.5 µM | [3] 182 µM | [4] 1.34 µM | [5] 179 µM
inactive: [7] | [8]
active: [2] 13 µM

NC(=O)Nc1ccccc1
inconclusive: [1] 147 µM | [2] 95.5 µM | [3] 1.11 µM | [4] 95.5 µM | [5] 95.5 µM | [6] 95.5 µM | [7] 95.5 µM | [8] 3.57 µM
inactive: [9]

Further compounds

O=CN1CCOCC1
inconclusive: [1] 181 µM | [3] 100 µM | [8] 100 µM
inactive: [2] | [4] | [5] | [6]

Nc1ccc(N)c(Cl)c1
active: [2] 4.08 µM
inconclusive: [4] 0.00342 µM | [5] 119 µM | [6] 181 µM | [8] 100 µM
inactive: [1] | [3] | [7]

CCCCC(CC)C(=O)OCCOCCOCCOC(=O)C(CC)CCCC (stereo unspecified)
active: [2] 27.5 µM
inactive: [1] | [6]
inconclusive: [3] 48.8 µM | [4] 25 µM | [5] 19.8 µM | [7] 100 µM | [8] 100 µM | [9] 0.00952 µM

CSC(=O)c1cccc2nnsc12
inconclusive: [1] 50 µM | [2] 50 µM | [4] 50 µM | [5] 50 µM | [6] 50 µM
inactive: [3]

OC12N=C(c3ccccc3)SC1Cc1cc(Cl)ccc12 (stereo unspecified)
inactive: [4] | [6]
inconclusive: [1] 19.8 µM | [3] 0.29 µM | [8] 100 µM
active: [2] 2.41 µM
